No constants are given. Whether binding was seen depends on the method and setting. In cells and extracts the contact can be indirect. Some binding calls cover weakened binding; strength is not graded here.
T1: p140Cap adaptor protein (UniProt Q9QWI6)
T1 sequence: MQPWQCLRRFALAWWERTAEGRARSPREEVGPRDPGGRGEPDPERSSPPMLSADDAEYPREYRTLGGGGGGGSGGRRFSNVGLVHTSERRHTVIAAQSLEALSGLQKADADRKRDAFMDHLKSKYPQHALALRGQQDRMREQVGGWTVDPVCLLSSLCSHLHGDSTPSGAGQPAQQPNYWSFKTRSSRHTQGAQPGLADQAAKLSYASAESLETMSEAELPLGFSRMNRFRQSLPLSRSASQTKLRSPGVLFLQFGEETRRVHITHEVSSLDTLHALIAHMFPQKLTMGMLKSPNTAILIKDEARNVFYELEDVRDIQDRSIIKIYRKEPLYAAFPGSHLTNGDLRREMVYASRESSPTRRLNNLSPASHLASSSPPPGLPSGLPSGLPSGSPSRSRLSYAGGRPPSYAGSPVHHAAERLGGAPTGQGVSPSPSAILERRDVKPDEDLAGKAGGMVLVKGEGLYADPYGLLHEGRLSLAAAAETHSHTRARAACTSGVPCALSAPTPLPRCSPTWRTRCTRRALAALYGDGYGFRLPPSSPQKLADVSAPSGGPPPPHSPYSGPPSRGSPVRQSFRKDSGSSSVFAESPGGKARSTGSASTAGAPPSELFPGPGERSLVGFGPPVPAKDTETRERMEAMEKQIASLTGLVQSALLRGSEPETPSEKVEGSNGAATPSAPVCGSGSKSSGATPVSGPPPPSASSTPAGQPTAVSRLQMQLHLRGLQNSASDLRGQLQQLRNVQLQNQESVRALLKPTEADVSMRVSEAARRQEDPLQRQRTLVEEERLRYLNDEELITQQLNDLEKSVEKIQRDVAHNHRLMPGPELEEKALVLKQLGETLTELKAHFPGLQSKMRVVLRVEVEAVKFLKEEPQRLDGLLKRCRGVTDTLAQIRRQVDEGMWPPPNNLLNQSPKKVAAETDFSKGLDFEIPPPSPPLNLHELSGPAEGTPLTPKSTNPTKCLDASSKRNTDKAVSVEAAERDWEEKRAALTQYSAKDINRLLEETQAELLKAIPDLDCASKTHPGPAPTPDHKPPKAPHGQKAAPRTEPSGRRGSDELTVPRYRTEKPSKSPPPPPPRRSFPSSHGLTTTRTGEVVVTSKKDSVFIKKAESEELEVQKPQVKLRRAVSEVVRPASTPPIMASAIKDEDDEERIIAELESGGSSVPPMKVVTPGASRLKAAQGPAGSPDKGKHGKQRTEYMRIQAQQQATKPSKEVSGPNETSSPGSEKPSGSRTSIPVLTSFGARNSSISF

The chains behind the UniProt entries cited, without tags or fusion partners. Residues count along the entry.
UniProt P09803, residues 157-884: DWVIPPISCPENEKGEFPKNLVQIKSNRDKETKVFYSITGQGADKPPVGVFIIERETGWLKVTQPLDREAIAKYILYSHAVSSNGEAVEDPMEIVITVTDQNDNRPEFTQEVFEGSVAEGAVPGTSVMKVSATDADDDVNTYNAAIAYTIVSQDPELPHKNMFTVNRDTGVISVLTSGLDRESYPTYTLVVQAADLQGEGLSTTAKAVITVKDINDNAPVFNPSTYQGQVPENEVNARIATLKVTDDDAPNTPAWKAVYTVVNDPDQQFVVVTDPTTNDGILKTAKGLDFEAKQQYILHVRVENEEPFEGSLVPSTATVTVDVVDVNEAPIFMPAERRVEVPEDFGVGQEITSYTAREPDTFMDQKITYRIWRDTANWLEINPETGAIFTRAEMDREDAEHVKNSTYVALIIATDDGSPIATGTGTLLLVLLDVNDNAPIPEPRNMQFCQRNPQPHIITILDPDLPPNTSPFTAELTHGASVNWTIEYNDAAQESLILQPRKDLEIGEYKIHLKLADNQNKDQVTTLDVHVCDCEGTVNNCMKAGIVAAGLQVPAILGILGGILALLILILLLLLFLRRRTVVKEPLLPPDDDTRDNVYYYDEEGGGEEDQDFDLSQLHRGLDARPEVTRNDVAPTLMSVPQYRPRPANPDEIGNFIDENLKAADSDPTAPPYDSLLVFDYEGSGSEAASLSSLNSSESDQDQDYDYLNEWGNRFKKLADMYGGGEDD
UniProt P26231: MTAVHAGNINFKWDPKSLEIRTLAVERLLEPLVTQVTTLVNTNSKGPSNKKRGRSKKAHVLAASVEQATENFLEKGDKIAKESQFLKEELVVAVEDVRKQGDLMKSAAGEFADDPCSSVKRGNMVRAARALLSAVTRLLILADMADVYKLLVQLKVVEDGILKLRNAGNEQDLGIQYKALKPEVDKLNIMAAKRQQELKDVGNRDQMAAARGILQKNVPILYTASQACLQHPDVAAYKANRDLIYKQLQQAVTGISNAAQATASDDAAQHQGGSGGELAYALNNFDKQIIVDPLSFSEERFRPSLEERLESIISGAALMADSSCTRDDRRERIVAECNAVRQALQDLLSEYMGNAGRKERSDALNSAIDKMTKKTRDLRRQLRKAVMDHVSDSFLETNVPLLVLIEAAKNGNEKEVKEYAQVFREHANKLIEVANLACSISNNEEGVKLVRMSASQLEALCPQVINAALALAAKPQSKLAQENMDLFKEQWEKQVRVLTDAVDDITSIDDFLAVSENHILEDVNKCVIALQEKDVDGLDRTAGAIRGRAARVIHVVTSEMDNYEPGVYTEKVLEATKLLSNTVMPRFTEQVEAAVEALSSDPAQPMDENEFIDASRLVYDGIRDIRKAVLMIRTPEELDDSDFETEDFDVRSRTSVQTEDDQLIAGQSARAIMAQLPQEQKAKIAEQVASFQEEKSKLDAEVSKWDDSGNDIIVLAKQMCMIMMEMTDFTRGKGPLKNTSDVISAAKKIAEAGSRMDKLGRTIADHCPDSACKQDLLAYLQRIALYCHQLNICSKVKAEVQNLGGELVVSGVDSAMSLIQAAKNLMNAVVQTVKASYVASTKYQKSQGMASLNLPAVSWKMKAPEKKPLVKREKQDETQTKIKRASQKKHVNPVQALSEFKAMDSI
UniProt Q02248: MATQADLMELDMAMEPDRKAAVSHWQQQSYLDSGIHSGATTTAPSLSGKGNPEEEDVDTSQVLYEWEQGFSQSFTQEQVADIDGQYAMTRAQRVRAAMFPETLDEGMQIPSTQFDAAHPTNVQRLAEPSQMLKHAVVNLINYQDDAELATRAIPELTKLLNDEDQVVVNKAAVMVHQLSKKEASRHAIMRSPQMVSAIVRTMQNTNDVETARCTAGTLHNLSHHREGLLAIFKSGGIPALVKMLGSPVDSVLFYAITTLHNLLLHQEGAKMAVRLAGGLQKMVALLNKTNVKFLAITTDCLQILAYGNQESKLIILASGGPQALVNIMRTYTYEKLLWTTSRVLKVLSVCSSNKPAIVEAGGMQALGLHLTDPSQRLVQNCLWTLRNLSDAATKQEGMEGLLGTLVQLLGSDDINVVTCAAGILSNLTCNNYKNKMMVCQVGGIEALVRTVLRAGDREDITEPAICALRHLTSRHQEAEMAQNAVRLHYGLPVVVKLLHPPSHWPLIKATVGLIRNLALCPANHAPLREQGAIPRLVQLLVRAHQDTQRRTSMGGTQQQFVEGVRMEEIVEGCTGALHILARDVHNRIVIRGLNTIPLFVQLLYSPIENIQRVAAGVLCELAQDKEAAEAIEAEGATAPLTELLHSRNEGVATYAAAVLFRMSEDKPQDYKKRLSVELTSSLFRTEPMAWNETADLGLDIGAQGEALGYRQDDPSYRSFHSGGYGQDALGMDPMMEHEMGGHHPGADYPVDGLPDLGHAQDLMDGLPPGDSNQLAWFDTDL
UniProt Q9JKF1: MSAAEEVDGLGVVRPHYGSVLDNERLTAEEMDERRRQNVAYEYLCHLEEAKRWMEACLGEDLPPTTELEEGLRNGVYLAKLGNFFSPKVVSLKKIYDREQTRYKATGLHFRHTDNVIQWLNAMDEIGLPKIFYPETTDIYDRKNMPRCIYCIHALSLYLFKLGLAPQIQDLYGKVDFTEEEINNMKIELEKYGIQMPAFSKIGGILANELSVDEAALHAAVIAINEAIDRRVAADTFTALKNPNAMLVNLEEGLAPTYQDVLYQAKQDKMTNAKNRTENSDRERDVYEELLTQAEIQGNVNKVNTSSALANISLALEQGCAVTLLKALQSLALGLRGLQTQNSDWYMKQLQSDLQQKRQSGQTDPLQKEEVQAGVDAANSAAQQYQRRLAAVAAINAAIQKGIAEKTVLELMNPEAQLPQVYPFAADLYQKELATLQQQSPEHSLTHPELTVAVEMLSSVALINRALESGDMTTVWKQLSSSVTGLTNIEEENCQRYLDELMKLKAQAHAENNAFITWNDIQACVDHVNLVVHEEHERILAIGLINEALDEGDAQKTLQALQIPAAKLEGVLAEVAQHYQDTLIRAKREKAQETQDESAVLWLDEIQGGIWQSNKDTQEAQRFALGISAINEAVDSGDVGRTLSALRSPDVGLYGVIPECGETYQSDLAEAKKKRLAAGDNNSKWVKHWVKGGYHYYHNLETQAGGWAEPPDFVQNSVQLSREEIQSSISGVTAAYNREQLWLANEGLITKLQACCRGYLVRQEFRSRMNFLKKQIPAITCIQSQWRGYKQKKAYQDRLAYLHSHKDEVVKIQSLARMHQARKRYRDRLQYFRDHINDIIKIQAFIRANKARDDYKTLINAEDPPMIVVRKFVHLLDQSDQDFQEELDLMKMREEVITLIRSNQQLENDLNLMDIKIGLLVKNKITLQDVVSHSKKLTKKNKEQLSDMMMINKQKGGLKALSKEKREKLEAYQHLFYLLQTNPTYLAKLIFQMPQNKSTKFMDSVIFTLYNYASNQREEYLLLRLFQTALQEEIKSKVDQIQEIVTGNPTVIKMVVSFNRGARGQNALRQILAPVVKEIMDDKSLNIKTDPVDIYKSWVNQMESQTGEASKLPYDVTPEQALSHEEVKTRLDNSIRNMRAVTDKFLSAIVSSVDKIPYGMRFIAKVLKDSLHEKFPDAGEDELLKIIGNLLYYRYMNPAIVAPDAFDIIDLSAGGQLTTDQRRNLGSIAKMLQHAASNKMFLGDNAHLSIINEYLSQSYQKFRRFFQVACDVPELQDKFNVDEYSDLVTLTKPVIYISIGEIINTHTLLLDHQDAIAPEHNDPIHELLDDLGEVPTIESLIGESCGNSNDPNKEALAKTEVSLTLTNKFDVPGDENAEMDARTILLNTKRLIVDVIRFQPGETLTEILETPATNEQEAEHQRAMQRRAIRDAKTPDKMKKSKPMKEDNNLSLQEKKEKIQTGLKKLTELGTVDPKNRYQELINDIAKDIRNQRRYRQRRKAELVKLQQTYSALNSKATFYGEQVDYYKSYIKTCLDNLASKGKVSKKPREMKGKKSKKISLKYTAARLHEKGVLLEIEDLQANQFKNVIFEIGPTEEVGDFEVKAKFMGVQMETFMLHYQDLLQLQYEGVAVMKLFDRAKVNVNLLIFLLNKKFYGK
UniProt A2AQ25: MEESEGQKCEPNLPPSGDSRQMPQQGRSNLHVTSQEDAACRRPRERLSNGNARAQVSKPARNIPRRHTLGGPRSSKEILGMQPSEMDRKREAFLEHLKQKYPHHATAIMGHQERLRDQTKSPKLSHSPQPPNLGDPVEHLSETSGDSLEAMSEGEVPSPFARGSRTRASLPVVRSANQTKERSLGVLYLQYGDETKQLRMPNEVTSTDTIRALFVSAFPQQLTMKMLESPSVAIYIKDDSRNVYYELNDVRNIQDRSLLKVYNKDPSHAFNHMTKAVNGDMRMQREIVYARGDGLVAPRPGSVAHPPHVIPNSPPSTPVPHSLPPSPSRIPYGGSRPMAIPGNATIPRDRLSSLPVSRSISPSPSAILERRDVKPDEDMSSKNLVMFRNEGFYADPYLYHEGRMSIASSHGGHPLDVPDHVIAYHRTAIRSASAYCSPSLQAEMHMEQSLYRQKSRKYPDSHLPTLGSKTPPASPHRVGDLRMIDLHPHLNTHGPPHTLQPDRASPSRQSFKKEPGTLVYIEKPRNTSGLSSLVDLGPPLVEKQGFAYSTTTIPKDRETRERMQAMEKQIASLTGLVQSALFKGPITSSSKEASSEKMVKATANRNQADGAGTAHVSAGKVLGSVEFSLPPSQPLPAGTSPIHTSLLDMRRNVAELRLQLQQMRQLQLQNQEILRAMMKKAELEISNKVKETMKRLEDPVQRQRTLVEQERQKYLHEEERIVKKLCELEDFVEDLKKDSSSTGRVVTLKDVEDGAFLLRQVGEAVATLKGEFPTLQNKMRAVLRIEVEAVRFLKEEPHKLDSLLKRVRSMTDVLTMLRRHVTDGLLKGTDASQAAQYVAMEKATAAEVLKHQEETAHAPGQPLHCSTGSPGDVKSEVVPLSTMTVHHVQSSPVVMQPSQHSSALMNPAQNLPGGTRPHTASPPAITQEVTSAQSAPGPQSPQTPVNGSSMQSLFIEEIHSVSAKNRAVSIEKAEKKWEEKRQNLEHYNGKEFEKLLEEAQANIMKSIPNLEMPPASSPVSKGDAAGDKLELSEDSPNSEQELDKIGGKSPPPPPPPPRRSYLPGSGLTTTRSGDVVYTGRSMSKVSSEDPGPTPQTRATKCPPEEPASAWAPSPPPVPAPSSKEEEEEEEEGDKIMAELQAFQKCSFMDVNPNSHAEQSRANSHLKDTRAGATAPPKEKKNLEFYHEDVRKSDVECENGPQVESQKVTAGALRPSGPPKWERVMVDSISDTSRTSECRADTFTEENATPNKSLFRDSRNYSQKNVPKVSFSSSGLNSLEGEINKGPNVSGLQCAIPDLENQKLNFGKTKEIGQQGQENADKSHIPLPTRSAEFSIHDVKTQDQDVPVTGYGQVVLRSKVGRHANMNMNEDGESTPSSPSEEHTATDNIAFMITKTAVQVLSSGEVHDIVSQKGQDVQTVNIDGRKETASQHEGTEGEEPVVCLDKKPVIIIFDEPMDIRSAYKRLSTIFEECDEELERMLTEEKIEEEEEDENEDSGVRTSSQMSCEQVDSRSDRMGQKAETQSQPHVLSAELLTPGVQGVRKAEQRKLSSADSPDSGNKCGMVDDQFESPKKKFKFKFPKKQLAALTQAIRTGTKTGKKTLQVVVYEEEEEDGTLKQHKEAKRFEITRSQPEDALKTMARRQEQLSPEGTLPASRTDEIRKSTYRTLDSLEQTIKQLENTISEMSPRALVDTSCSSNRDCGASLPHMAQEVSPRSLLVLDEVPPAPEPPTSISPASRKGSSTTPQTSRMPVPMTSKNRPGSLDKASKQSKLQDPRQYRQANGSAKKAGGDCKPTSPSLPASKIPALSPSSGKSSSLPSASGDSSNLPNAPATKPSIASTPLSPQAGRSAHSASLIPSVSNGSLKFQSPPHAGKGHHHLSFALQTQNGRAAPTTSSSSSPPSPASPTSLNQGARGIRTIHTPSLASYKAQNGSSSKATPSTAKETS


What was measured:
p140Cap adaptor protein = target: T1, p140Cap adaptor protein; assay: co-IP; p140Cap immunoprecipitates (p140Cap Mab on protein G Dynabeads) from p140 and mock TUBO cell extracts, Western blot with specific antibodies
[1] = target: Cadherin-1 (mouse (endogenous in TUBO cells)) (UniProt P09803); assay: co-IP; reverse: E-cadherin immunoprecipitated, Western blot for p140Cap

Row | Molecule | binding (p140Cap adaptor protein) | binding [1]
1 | Cadherin-1 (from UniProt P09803 157-884) | binds | –
2 | Catenin alpha-1 (from UniProt P26231 1-906) | binds | –
3 | Catenin beta-1 (from UniProt Q02248 1-781) | binds | –
4 | Ras GTPase-activating-like protein IQGap1 (from UniProt Q9JKF1 1-1657) | binds | –
5 | Sickle tail protein (from UniProt A2AQ25 1-1946) | binds | –
6 | Catenin delta-1 (protein, UniProt P30999 1-938) MDDSEVESTASILASVKEQEAQFEKLTRALEEERRHVSAQLERVRVSPQDANSLMANGTLTRRHQNGRFVGDADLERQKFSDLKLNGPQDHNHLLYSTIPRMQEPGQIVETYTEEDPEGAMSVVSVETTDDGTTRRTETTVKKVVKTMTTRTVQPVPMGPDGLPVDASAVSNNYIQTLGRDFRKNGNGGPGPYVGQAGTATLPRNFHYPPDGYGRHYEDGYPGGSDNYGSLSRVTRIEERYRPSMEGYRAPSRQDVYGPQPQVRVGGSSVDLHRFHPEPYGLEDDQRSMGYDDLDYGMMSDYGTARRTGTPSDPRRRLRSYEDMIGEEVPPDQYYWAPLAQHERGSLASLDSLRKGMPPPSNWRQPELPEVIAMLGFRLDAVKSNAAAYLQHLCYRNDKVKTDVRKLKGIPILVGLLDHPKKEVHLGACGALKNISFGRDQDNKIAIKNCDGVPALVRLLRKARDMDLTEVITGTLWNLSSHDSIKMEIVDHALHALTDEVIIPHSGWEREPNEDCKPRHIEWESVLTNTAGCLRNVSSERSEARRKLRECDGLVDALIFIVQAEIGQKDSDSKLVENCVCLLRNLSYQVHREIPQAERYQEALPTVANSTGPHAASCFGAKKGKDEWFSRGKKPTEDPANDTVDFPKRTSPARGYELLFQPEVVRIYISLLKESKTPAILEASAGAIQNLCAGRWTYGRYIRSALRQEKALSAIAELLTSEHERVVKAASGALRNLAVDARNKELIGKHAIPNLVKNLPGGQQNSSWNFSEDTVVSILNTINEVIAENLEAAKKLRETQGIEKLVLINKSGNRSEKEVRAAALVLQTIWGYKELRKPLEKEGWKKSDFQVNLNNASRSQSSHSYDDSTLPLIDRNQKSDKKPDREEIPMSNMGSNTKSLDNNYSTLNERGDHNRTLDRSGDLGDMEPLKGAPLMQKI | binds | –
7 | p140Cap adaptor protein (protein, UniProt Q9QWI6 1-1250) MQPWQCLRRFALAWWERTAEGRARSPREEVGPRDPGGRGEPDPERSSPPMLSADDAEYPREYRTLGGGGGGGSGGRRFSNVGLVHTSERRHTVIAAQSLEALSGLQKADADRKRDAFMDHLKSKYPQHALALRGQQDRMREQVGGWTVDPVCLLSSLCSHLHGDSTPSGAGQPAQQPNYWSFKTRSSRHTQGAQPGLADQAAKLSYASAESLETMSEAELPLGFSRMNRFRQSLPLSRSASQTKLRSPGVLFLQFGEETRRVHITHEVSSLDTLHALIAHMFPQKLTMGMLKSPNTAILIKDEARNVFYELEDVRDIQDRSIIKIYRKEPLYAAFPGSHLTNGDLRREMVYASRESSPTRRLNNLSPASHLASSSPPPGLPSGLPSGLPSGSPSRSRLSYAGGRPPSYAGSPVHHAAERLGGAPTGQGVSPSPSAILERRDVKPDEDLAGKAGGMVLVKGEGLYADPYGLLHEGRLSLAAAAETHSHTRARAACTSGVPCALSAPTPLPRCSPTWRTRCTRRALAALYGDGYGFRLPPSSPQKLADVSAPSGGPPPPHSPYSGPPSRGSPVRQSFRKDSGSSSVFAESPGGKARSTGSASTAGAPPSELFPGPGERSLVGFGPPVPAKDTETRERMEAMEKQIASLTGLVQSALLRGSEPETPSEKVEGSNGAATPSAPVCGSGSKSSGATPVSGPPPPSASSTPAGQPTAVSRLQMQLHLRGLQNSASDLRGQLQQLRNVQLQNQESVRALLKPTEADVSMRVSEAARRQEDPLQRQRTLVEEERLRYLNDEELITQQLNDLEKSVEKIQRDVAHNHRLMPGPELEEKALVLKQLGETLTELKAHFPGLQSKMRVVLRVEVEAVKFLKEEPQRLDGLLKRCRGVTDTLAQIRRQVDEGMWPPPNNLLNQSPKKVAAETDFSKGLDFEIPPPSPPLNLHELSGPAEGTPLTPKSTNPTKCLDASSKRNTDKAVSVEAAERDWEEKRAALTQYSAKDINRLLEETQAELLKAIPDLDCASKTHPGPAPTPDHKPPKAPHGQKAAPRTEPSGRRGSDELTVPRYRTEKPSKSPPPPPPRRSFPSSHGLTTTRTGEVVVTSKKDSVFIKKAESEELEVQKPQVKLRRAVSEVVRPASTPPIMASAIKDEDDEERIIAELESGGSSVPPMKVVTPGASRLKAAQGPAGSPDKGKHGKQRTEYMRIQAQQQATKPSKEVSGPNETSSPGSEKPSGSRTSIPVLTSFGARNSSISF | – | binds
8 | Tectonin beta-propeller repeat-containing protein 1 (protein, UniProt Q80VP0 1-1166) MPTSVLWAVDLFGRVYTLSTAGQYWELCKDVQLEFKRVSAATQCCWGIAGDNQVYLYVCSSDVPIRHREEAYENQRWNPMGGFCEKLLPSDRWPWSDVSGLQHRPLDGVALPSPHWEWESDWYVDENFGGEPTEKGGWTYAMDFPATYTRDKKWNSCVRRRKWIRYRRYKSRDSWAKIPSKDDPKELPDPFNDLSVGGWEITEEPVGRLSVWAVSLQGKVWYREDVSHPNPEGSSWSLVETPGEVVQISCGPHDLIWATLWEGQALVREGVCRNNPKGSYWSMVEPPGSENGIMHVSAGVSVVWAITKDRKVWFRRGVNSHNPCGTSWIEMVGEMTMVNVGLNDQVWGISCEDRAVYFRQGVTPSELSGKTWKAIVVGRESDRSHSGSSSSLLSAGCFFGDEVRGSGTESAPSDTDASLEVERQGPEQPLPKEALDNSTNLKGSLSKGHETSGNTDHSTENACLTEGKEKAPETSRSDECRGPASTPAELPWTNIDLKEPKKVSNQPAAGFPETAGLSSLGLFPMGMEEPYGADDHPLWAWVSGGACAVEAGSTLKWFTIQSGLSPSVQTLSLSITPAQTAAWRKQIFQQLTERTKRELESFRHYEQAVEQSVWVKTGALQWWCDWKPHKWVDVRVALEQFTGHDGARDSILFIYYVVHEEKKYLHVFLNEVTVLVPVLNEAKHSFALYTPERTRQRWPVRLAAATEQDMNDWLALLSLSCCESRKVHGRPSPQAIWSVTCKGDIFVSEPSPDLEARERLLPCDQMFWRQMGGHLRIIEANSRGVVWGIGYDHTAWVYTGGYGGGCFQGLASSTSNIYTQSDVKSVYIYENQRWNPVTGYTSRGLPTDRFMWSDVTGLQECTKAGTKPPSLQWTWVSDWYVDFSVPGGTDQEGWQYASDFPASYHGYKTMKDFVRRRCWARKCKLVTSGPWLEVAPITLSDVSIIPESAHADGRGHNVALWAVSDKGDVLCRLGVSELNPAGSSWLHVGTDQPFASVSIGACYQVWAVARDGSAFYRGSVSPSQPAGDCWYHIPSPPKQKLTQVSVGQTSVYALDENGNLWYRAGITPSYPQGSSWEHVSNNVRKVSVGPLDQVWVIANKVQGSHGLSRGTVCRRMGVQPREPKGQGWDYGIGGGWDHISVRANATRVPRNMSRDREARGPGPVCC | binds | –
